In PMC5220304 one finds binding data, which are given here for two substances.

Protein sequences, listed by entry. Tags and fused reporters are not part of them.
UniProt Q336P5: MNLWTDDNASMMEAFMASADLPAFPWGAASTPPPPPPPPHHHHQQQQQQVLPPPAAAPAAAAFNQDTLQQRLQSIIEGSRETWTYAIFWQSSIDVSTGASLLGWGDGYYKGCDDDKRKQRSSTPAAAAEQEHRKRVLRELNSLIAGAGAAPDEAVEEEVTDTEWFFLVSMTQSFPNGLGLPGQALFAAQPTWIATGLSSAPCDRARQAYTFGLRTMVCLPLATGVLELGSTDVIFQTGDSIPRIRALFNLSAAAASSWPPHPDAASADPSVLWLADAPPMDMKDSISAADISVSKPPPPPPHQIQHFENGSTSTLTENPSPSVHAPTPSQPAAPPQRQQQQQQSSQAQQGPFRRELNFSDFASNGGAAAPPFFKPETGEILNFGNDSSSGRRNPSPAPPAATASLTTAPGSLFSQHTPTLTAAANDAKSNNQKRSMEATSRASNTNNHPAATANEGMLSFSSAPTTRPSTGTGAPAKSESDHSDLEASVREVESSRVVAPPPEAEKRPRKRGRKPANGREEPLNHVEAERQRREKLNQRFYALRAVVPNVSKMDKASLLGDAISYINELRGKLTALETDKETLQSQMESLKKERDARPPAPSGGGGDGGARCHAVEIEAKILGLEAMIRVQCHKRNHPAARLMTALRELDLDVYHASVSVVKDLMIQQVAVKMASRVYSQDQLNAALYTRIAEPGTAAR

Assay [1] deals with OsMYC2 fused to a half of EYFP (nYFP-OsMYC2 and cYFP-OsMYC2) (rice (Oryza sativa)) (UniProt Q336P5). As to the kind of experiment: split reporter; BiFC: nEYFP-fused protein, cEYFP-fused protein and DsRed1 under the CaMV 35S promoter, bombarded into onion epidermal cells; 25 °C in darkness for 24 h; YFP fluorescence by microscopy.
The target of assay [2] is OsMYC2 from the wheat germ expression system (biotinylated His-Bls-OsMYC2 and FLAG-tagged OsMYC2) (rice (Oryza sativa)) (UniProt Q336P5). As to the kind of experiment: AlphaScreen or HTRF; crude wheat germ translation mixtures; biotinylated His-Bls-OsMYC2 (streptavidin-coated donor beads) with FLAG-tagged proteins (anti-DYKDDDDK antibody, Protein A-coated acceptor beads); 100 mM Tris-HCl pH 8.0, 100 mM NaCl, 0.1% Tween20, 1 mg/mL BSA, 25 °C, 1 h.

These are yes or no findings as the source states them, for the method shown. For some assays here: In cells and extracts the contact can be indirect. Some entries that bind do so weakly or less than the wild type.

For the substance “OsMYC2 fused to a half of EYFP (nYFP-OsMYC2 and cYFP-OsMYC2) (from UniProt Q336P5 1-699)”, in assay [1], the binding result is “binds”.

For “OsMYC2 from the wheat germ expression system (biotinylated His-Bls-OsMYC2 and FLAG-tagged OsMYC2) (from UniProt Q336P5 1-699)”, the binding entry in assay [2] was “binds”.
